Assay results reported in PMC549217.
Results are given in words; binding and its absence hold for the method and conditions named. Binding seen in cells or lysates may run through a third protein. Some binding calls cover weakened binding; strength is not graded here.

Protein sequences, listed by entry. Tags and fused reporters are not part of them. Lines headed by an entry give the natural chain unless they say otherwise; changes in a name come on top. Chains listed by the source or under a name are the forms on record and can include a tag or linker. Residues count along the entry.
UniProt P04608: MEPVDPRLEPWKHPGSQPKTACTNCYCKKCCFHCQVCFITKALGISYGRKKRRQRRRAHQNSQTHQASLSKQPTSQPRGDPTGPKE
GST-fused Tat 1–72: residues 1-72 of P04608
GST-Tat (1–48): residues 1-48 of P04608
GST-Tat (37–72): residues 37-72 of P04608

How the values were obtained:
[1] = biological target: T1, LIS1 (endogenous, HeLa) (human (endogenous in HeLa)) (UniProt P43034); experiment: co-IP; HeLa whole cell extract of Adeno-Tat infected cells; anti-LIS1 or anti-Flag antibodies, protein G-agarose, TNN buffer (50 mM Tris-HCl pH 7.5, 0.5% NP-40, 150 mM NaCl), 4°C, 2 h; immunoblot
T1 sequence: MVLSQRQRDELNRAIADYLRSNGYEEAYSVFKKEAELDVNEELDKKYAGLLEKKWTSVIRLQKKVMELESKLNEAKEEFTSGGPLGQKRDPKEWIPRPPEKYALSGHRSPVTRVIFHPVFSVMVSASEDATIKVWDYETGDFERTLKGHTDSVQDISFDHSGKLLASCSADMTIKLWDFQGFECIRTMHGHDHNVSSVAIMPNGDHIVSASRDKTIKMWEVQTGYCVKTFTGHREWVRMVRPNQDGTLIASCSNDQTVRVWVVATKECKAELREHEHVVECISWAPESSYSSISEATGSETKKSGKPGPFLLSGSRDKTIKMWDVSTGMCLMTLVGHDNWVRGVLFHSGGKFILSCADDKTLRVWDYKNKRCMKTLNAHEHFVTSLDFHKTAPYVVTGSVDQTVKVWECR

GST-Tat (37–72) (HIV-1) = GST-Tat (37–72) (HIV-1) (UniProt P04608); experiment: pull-down; GST-fused Tat or GST alone immobilized on glutathione-agarose beads; [35S]methionine-labelled proteins in programmed reticulocyte lysates; 12% SDS-PAGE, autoradiogram; the lysate holds endogenous LIS1; only the target purified
[2] = biological target: GST-fused Tat 1–72 (HIV-1) (UniProt P04608); experiment: as above
GST-Tat (1–48) (HIV-1) = GST-Tat (1–48) (HIV-1) (UniProt P04608); experiment: as above
Flag-tagged Tat (HIV-1) = Flag-tagged Tat (HIV-1) (UniProt P04608); experiment: co-IP; HeLa whole cell extract of Adeno-Tat infected cells; anti-LIS1 or anti-Flag antibodies, protein G-agarose, TNN buffer (50 mM Tris-HCl pH 7.5, 0.5% NP-40, 150 mM NaCl), 4°C, 2 h; immunoblot

Which binding [1] does the source give for “Flag-tagged Tat (from UniProt P04608 1-86)” here?
Its binding is “binds”.

B1: LIS1 (translated in reticulocyte lysate) (protein, UniProt P43034 1-410)
chain: MVLSQRQRDELNRAIADYLRSNGYEEAYSVFKKEAELDVNEELDKKYAGLLEKKWTSVIRLQKKVMELESKLNEAKEEFTSGGPLGQKRDPKEWIPRPPEKYALSGHRSPVTRVIFHPVFSVMVSASEDATIKVWDYETGDFERTLKGHTDSVQDISFDHSGKLLASCSADMTIKLWDFQGFECIRTMHGHDHNVSSVAIMPNGDHIVSASRDKTIKMWEVQTGYCVKTFTGHREWVRMVRPNQDGTLIASCSNDQTVRVWVVATKECKAELREHEHVVECISWAPESSYSSISEATGSETKKSGKPGPFLLSGSRDKTIKMWDVSTGMCLMTLVGHDNWVRGVLFHSGGKFILSCADDKTLRVWDYKNKRCMKTLNAHEHFVTSLDFHKTAPYVVTGSVDQTVKVWECR
modifications: [35S]methionine label
Which results are given for B1?
binding (GST-Tat (37–72) (HIV-1)): binds; binding [2]: binds; binding (GST-Tat (1–48) (HIV-1)): binds

B2: LIS1 (endogenous, HeLa) (protein, UniProt P43034 1-410)
chain: MVLSQRQRDELNRAIADYLRSNGYEEAYSVFKKEAELDVNEELDKKYAGLLEKKWTSVIRLQKKVMELESKLNEAKEEFTSGGPLGQKRDPKEWIPRPPEKYALSGHRSPVTRVIFHPVFSVMVSASEDATIKVWDYETGDFERTLKGHTDSVQDISFDHSGKLLASCSADMTIKLWDFQGFECIRTMHGHDHNVSSVAIMPNGDHIVSASRDKTIKMWEVQTGYCVKTFTGHREWVRMVRPNQDGTLIASCSNDQTVRVWVVATKECKAELREHEHVVECISWAPESSYSSISEATGSETKKSGKPGPFLLSGSRDKTIKMWDVSTGMCLMTLVGHDNWVRGVLFHSGGKFILSCADDKTLRVWDYKNKRCMKTLNAHEHFVTSLDFHKTAPYVVTGSVDQTVKVWECR
With B2 as the molecule, how does the binding (Flag-tagged Tat (HIV-1)) read?
Its binding is “binds”.
